Microarray screen: hit calls

From ROBIN, a set of small-molecule microarray screens (doi:10.1002/anie.202211358).

Targets, with sequences 5′ to 3′:
TPP: TPP riboswitch RNA three-way junction, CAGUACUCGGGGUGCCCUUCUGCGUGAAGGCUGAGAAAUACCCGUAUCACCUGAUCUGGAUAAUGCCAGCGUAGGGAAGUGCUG. Hit rate about 0.7% of about 24,000 compounds.
SAM-II: SAM-II riboswitch RNA pseudoknot, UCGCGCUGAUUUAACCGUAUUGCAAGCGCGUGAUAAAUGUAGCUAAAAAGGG. Hit rate about 1% of about 21,000 compounds.
PreQ1: PreQ1 riboswitch RNA pseudoknot, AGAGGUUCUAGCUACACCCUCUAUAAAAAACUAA. From B. subtilis. Hit rate about 0.7% of about 24,000 compounds.

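Compounds were printed on reactive glass slides in duplicate spots, a dye-labelled oligonucleotide was laid over them, and the fluorescence left after washing was read. The data file lists only calls. An earlier report of the laboratory on the PreQ1, TPP and SAM-II riboswitches (doi:10.1038/s41467-019-09493-3) used 1 µM RNA for 2 h and required a mean Z-score above 3 (spot signal-to-noise against the whole library), a score well above that on a control array, and duplicate spots agreeing (coefficient of variation under 100); it then also set aside compounds that hit other targets, which this list keeps. The cut-offs behind this list may differ. A missing hit is not proof of no binding, and a hit is not a measured affinity.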 “hit” means called a hit, “none” means screened and not called a hit. The compounds are a random part of those screened. A dash means that no call is listed here.

| # | Compound | TPP | SAM-II | PreQ1 |
|---|---|---|---|---|
| 1 | `CCc1nc(NC2CCCCC2)c(C#N)c2c1CCCC2` | none | none | none |
| 2 | `Cc1cccc(NC(=O)N2CCN(C(=O)c3nonc3N)CC2)c1C` | none | - | none |
| 3 | `CC(=O)c1c(C)nn(Cc2nc(-c3ccccc3)nn2CCO)c1C` | none | none | none |
| 4 | `CCOc1ccccc1NCc1nc2nc(C)cc(C)n2n1` | none | - | none |
| 5 | `Cn1c(Nc2ccc(C(F)(F)F)cc2)nc2cc(Oc3ccnc(-c4ncc(C(F)(F)F)[nH]4)c3)ccc21` | none | none | none |
| 6 | `COC(=O)N[C@H](C(=O)N[C@@H](Cc1ccccc1)[C@@H](O)CN(Cc1ccc(-c2ccccn2)cc1)NC(=O)[C@@H](NC(=O)OC)C(C)(C)C)C(C)(C)C` | none | none | none |
| 7 | `N#Cc1c(N)nc2c(c1C(=O)OCCO)CCC2` | none | none | hit |
| 8 | `COc1ccccc1OCC(O)CN1CCC(C)CC1` (stereo unspecified) | none | none | none |
| 9 | `CN(C)c1ccc(C=NCC(O)CN=Cc2ccc(N(C)C)cc2)cc1` (stereo unspecified) | none | none | none |
| 10 | `CC1=CC(=O)C(/C(C)=N/c2ccccc2Cl)C(=O)O1` (stereo unspecified) | none | none | none |
| 11 | `N#CC1=C(N)Oc2cc(O)ccc2C1c1cccnc1` (stereo unspecified) | none | none | none |
| 12 | `CN(C)CC(C)(C)CNc1nn2c(-c3ccccc3)nnc2cc1C1CCC1` | none | none | none |
| 13 | `O=C(N[C@@H]1CCN(CCn2c(=O)oc3ccccc32)C[C@H]1O)c1ccncc1` | none | none | none |
| 14 | `Cc1cc(NCc2cc(F)c(F)cc2F)nc(N)n1` | none | none | none |
| 15 | `Cc1ccc2nc(NCc3cccc(Cl)c3)c(-c3noc(C)n3)cc2c1` | none | - | none |
| 16 | `Cc1nnc2c3ccccc3nc(NC3CCCCCCC3)n12` | none | - | none |
| 17 | `Cn1cc(CCC(=O)N2C[C@@H](CN3CCCCCC3)[C@@H](CO)C2)cn1` | none | none | none |
| 18 | `CNc1nc2ccc(C)cc2cc1-c1noc(-c2ccccc2)n1` | none | - | none |
| 19 | `Nc1nonc1-c1nc2ccccc2n1Cc1ccccn1` | none | none | none |
| 20 | `N#CC1=C(N)Oc2c(c(=O)sc3ccccc23)C1c1ccccc1Cl` (stereo unspecified) | none | none | none |
| 21 | `O=C(O)C1=CC(O)C(O)[C@H](O)C1` (stereo partly specified) | none | none | none |
| 22 | `COc1cccc(CNCc2cccnc2)c1OCc1ccc(F)cc1` | none | none | none |
| 23 | `N#Cc1cnc(N2CCN(Cc3csc(-c4ccccc4)n3)CC2)nc1N` | none | none | none |
| 24 | `Cc1onc(C(=O)N2CCN(Cc3cnn(C)c3)CC(O)C2)c1CO` (stereo unspecified) | none | none | none |
| 25 | `CCCCc1ccc2nc(NC(=O)OC)[nH]c2c1` | none | none | none |
| 26 | `Fc1cccc(C2(CNC3CCN(c4ncccn4)CC3)CCOCC2)c1` | none | none | none |
| 27 | `CCOCCn1nc(C)cc1C(=O)N1C[C@H](c2ccc(C)o2)[C@@H](N)C1` | none | none | none |
| 28 | `COc1ccc(C(C(=O)O)N2CCC(CO)CC2)c(OC)n1` (stereo unspecified) | none | none | none |
| 29 | `CSc1ccc(CNCCCSc2nnnn2C)cc1` | none | - | none |
| 30 | `COC(=O)c1cc(NC2c3ccccc3C(=O)N2c2ccccc2C)cc(C(=O)OC)c1` (stereo unspecified) | none | none | none |
| 31 | `O=C1CN=C(c2ccc[nH]2)c2cc(Cl)ccc2N1` | none | none | none |
| 32 | `Nc1nc2c(c(N3CCN(Cc4ccccc4F)CC3)n1)CCNCC2` | none | none | none |
| 33 | `O[C@H]1C[C@@H]2CN(c3noc(-c4ccccc4)n3)C[C@@H]2C[C@@H]1O` | none | none | none |
| 34 | `Cc1ccc(NCc2nc(-c3ccccc3)no2)cc1` | none | none | none |
| 35 | `N#Cc1c(N)nc2c(c1-c1ccsc1)Cc1c(O)cccc1-2` | none | none | none |
| 36 | `CCNC(=O)Nc1ccc(-c2ccc3ncnc(N)c3c2)cc1` | none | none | none |
| 37 | `Cc1c[nH]c(CN(C)C(=O)c2cccc(C3CCCNC3)c2)n1` (stereo unspecified) | none | none | none |
| 38 | `CN(C)c1nc(-c2ccccc2)nc2c1CCN(C(=O)c1ccc(N)nc1)C2` | none | none | none |
| 39 | `COCC1(NC(=O)c2cccc(C3CCCNC3)c2)CCCC1` (stereo unspecified) | none | none | none |
| 40 | `Cc1nnnn1CCc1nc(COc2cccc(F)c2)nn1CCO` | none | none | none |
| 41 | `COc1ccc([C@H]2C[C@@H](c3ccc(Cl)cc3)Nc3nc(N)nn32)cc1OC` | none | none | none |